Reference: PubChem BioAssay AID493246 (Drosophila RNAi Screening Center, 2011)
Test: 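Genome-wide search for dsRNAs that reduce cell number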 (primary screen). Cells: Drosophila Kc and S2R+ cells. Reagent: long dsRNA against Drosophila genes. Measured: 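Cell number per well after knock-down, printed as raw plate values; calls were based on per-plate z-scores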. Scale: Kc cell number and S2R+ cell number: higher = more cells remaining. Call rule: 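Counted as a hit if cell number falls by a z-score of at least 3 within its plate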.
The deposit covers about 21,000 reagents; this is an unselected part of those that have a named target and a result. Of all reagents, 429 (2%) are marked active. 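Values are raw and not normalised between plates; calls rest on per-plate z-scores that were not deposited.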 Unmarked entries are inactive. Reagents against one gene are numbered here. Names joined by + are all predicted targets of the reagent. Not stated in the record: the amount of reagent, the time to read-out.

| Gene | reagent | Kc cell number, rep 1 | Kc cell number, rep 2 | S2R+ cell number, rep 1 | S2R+ cell number, rep 2 |
| --- | --- | --- | --- | --- | --- |
| Fib (Fibrillarin) | 1 | 1.56e6 | 1.62e6 | 1.10e6 | 1.35e6 |
| CG13659 | 1 | 1.55e6 | 1.52e6 | 1.00e6 | 1.14e6 |
| CG14739 | 1 | 1.63e6 | 1.57e6 | 1.27e6 | 1.33e6 |
| CG13003 | 1 | 1.56e6 | 1.54e6 | 1.13e6 | 1.22e6 |
| CG7694 | 1 | 1.24e6 | 1.23e6 | 1.09e6 | 1.19e6 |
| Ance-5 | 1 | 1.24e6 | 1.31e6 | 1.05e6 | 1.09e6 |
| CG18284 | 1 | 1.36e6 | 1.23e6 | 1.10e6 | 1.02e6 |
| CG18284 | 2 | 1.23e6 | 1.49e6 | 1.11e6 | 1.15e6 |
| CG6650 | 1 | 1.67e6 | 1.72e6 | 1.40e6 | 1.38e6 |
| CG14142 | 1 | 1.51e6 | 1.74e6 | 1.41e6 | 1.61e6 |
| cnir (cornichon related) | 1 | 1.70e6 | 1.68e6 | 1.14e6 | 1.29e6 |
| CG31482 | 1 | 1.60e6 | 1.72e6 | 1.33e6 | 1.48e6 |
| RhoGAP102A (Rho GTPase activating protein at 102A) | 1 | 1.27e6 | 1.49e6 | 1.06e6 | 1.10e6 |
| RhoGAP102A (Rho GTPase activating protein at 102A) | 2 | 1.63e6 | 1.73e6 | 1.08e6 | 1.10e6 |
| Art7 (Arginine methyltransferase 7) | 1 | 1.62e6 | 1.76e6 | 1.39e6 | 1.51e6 |
| Oatp58Dc (Organic anion transporting polypeptide 58Dc) | 1 | 1.26e6 | 1.35e6 | 1.09e6 | 1.10e6 |
| CG12376 | 1 | 1.51e6 | 1.49e6 | 1.22e6 | 1.30e6 |
| Ada1-1 + Ada1-2 | 1 | 1.76e6 | 1.77e6 | 1.10e6 | 1.28e6 |
| Ada1-1 + Ada1-2 | 2 | 1.42e6 | 1.49e6 | 9.79e5 | 1.15e6 |
| CR42785 (pseudo) | 1 | 1.50e6 | 1.71e6 | 1.00e6 | 1.07e6 |
| Mesh1 (Metazoan SpoT homolog-1) | 1 | 1.42e6 | 1.47e6 | 9.87e5 | 1.14e6 |
| GluRIIB (Glutamate receptor IIB) | 1 | 1.52e6 | 1.45e6 | 1.10e6 | 1.19e6 |
| CG18179 | 1 | 1.38e6 | 1.34e6 | 1.22e6 | 1.35e6 |
| Acsx1R (Acyl-CoA synthetase X1 R) | 1 | 1.23e6 | 1.23e6 | 1.10e6 | 1.17e6 |
| Hmgs (HMG Coenzyme A synthase) | 1 | 1.48e6 | 1.53e6 | 9.82e5 | 1.10e6 |
| CG15841 (retired record) + Acp33A | 1 | 1.56e6 | 1.67e6 | 1.33e6 | 1.55e6 |
| dysf (dysfusion) | 1 | 1.45e6 | 1.61e6 | 1.05e6 | 1.17e6 |
| dysf (dysfusion) | 2 | 1.54e6 | 1.56e6 | 9.26e5 | 1.04e6 |
| dysf (dysfusion) | 3 | 1.46e6 | 1.54e6 | 1.05e6 | 1.15e6 |
| dysf (dysfusion) | 4 | 1.45e6 (active) | 1.56e6 | 6.35e5 | 7.29e5 |
| hiw (highwire) | 1 | 1.57e6 | 1.56e6 | 1.05e6 | 1.20e6 |
| hiw (highwire) | 2 | 1.57e6 | 1.61e6 | 1.12e6 | 1.25e6 |
| Sik3 (Salt-inducible kinase 3) | 1 | 1.65e6 | 1.64e6 | 1.18e6 | 1.30e6 |
| Sik3 (Salt-inducible kinase 3) | 2 | 1.40e6 | 1.40e6 | 1.29e6 | 1.31e6 |
| Alg13 (Alg13 UDP-N-acetylglucosaminyltransferase subunit) | 1 | 1.73e6 | 1.71e6 | 1.09e6 | 1.24e6 |
| CG40005 (retired record) + cta | 1 | 6.90e5 | – | 8.97e5 | – |
| lin-52 | 1 | 1.46e6 | 1.48e6 | 1.03e6 | 1.11e6 |

9 entries from above in another layout.
Acsx1R (Acyl-CoA synthetase X1 R)
- Kc cell number, rep 1: 1.23e6
- Kc cell number, rep 2: 1.23e6
- S2R+ cell number, rep 1: 1.10e6
- S2R+ cell number, rep 2: 1.17e6

Hmgs (HMG Coenzyme A synthase)
- Kc cell number, rep 1: 1.48e6
- Kc cell number, rep 2: 1.53e6
- S2R+ cell number, rep 1: 9.82e5
- S2R+ cell number, rep 2: 1.10e6

CG15841 (retired record) + Acp33A
- Kc cell number, rep 1: 1.56e6
- Kc cell number, rep 2: 1.67e6
- S2R+ cell number, rep 1: 1.33e6
- S2R+ cell number, rep 2: 1.55e6

dysf (dysfusion) #1
- Kc cell number, rep 1: 1.45e6
- Kc cell number, rep 2: 1.61e6
- S2R+ cell number, rep 1: 1.05e6
- S2R+ cell number, rep 2: 1.17e6

dysf (dysfusion) #2
- Kc cell number, rep 1: 1.54e6
- Kc cell number, rep 2: 1.56e6
- S2R+ cell number, rep 1: 9.26e5
- S2R+ cell number, rep 2: 1.04e6

dysf (dysfusion) #3
- Kc cell number, rep 1: 1.46e6
- Kc cell number, rep 2: 1.54e6
- S2R+ cell number, rep 1: 1.05e6
- S2R+ cell number, rep 2: 1.15e6

dysf (dysfusion) #4
- Kc cell number, rep 1: 1.45e6 (active)
- Kc cell number, rep 2: 1.56e6
- S2R+ cell number, rep 1: 6.35e5
- S2R+ cell number, rep 2: 7.29e5

hiw (highwire) #1
- Kc cell number, rep 1: 1.57e6
- Kc cell number, rep 2: 1.56e6
- S2R+ cell number, rep 1: 1.05e6
- S2R+ cell number, rep 2: 1.20e6

hiw (highwire) #2
- Kc cell number, rep 1: 1.57e6
- Kc cell number, rep 2: 1.61e6
- S2R+ cell number, rep 1: 1.12e6
- S2R+ cell number, rep 2: 1.25e6

The list goes on:
| Gene | reagent | Kc cell number, rep 1 | Kc cell number, rep 2 | S2R+ cell number, rep 1 | S2R+ cell number, rep 2 |
| --- | --- | --- | --- | --- | --- |
| C901 | 1 | 1.64e6 | 1.68e6 | 1.03e6 | 1.18e6 |
| Gbs-76A (Glycogen binding subunit 76A) | 1 | 1.65e6 | 1.64e6 | 1.51e6 | 1.60e6 |
| Dys (Dystrophin) | 1 | 1.76e6 | 1.79e6 | 1.09e6 | 1.12e6 |
| Dys (Dystrophin) | 2 | 1.39e6 | 1.39e6 | 1.02e6 | 1.08e6 |
| Dys (Dystrophin) | 3 | 1.30e6 | 1.28e6 | 1.05e6 | 1.17e6 |
| Dys (Dystrophin) | 4 | 1.33e6 | 1.33e6 | 1.08e6 | 1.16e6 |
| Dys (Dystrophin) | 5 | 1.23e6 | 1.15e6 | 1.09e6 | 1.21e6 |
| Dys (Dystrophin) | 6 | 1.39e6 | 1.40e6 | 1.12e6 | 1.26e6 |
| Dys (Dystrophin) | 7 | 1.33e6 | 1.31e6 | 1.01e6 | 1.08e6 |
| unc-5 | 1 | 1.33e6 | 1.37e6 | 1.03e6 | 1.19e6 |
| unc-5 | 2 | 1.59e6 | 1.58e6 | 1.22e6 | 1.45e6 |
| unc-5 | 3 | 1.58e6 | 1.59e6 | 1.21e6 | 1.37e6 |
| Cpr47Ea (Cuticular protein 47Ea) | 1 | 1.53e6 | 1.54e6 | 1.23e6 | 1.37e6 |
| Ir94h (Ionotropic receptor 94h) | 1 | 1.44e6 | 1.43e6 | 1.09e6 | 1.15e6 |
| CG31099 | 1 | 1.64e6 | 1.70e6 | 1.06e6 | 1.13e6 |
| CG7841 | 1 | 1.41e6 | 1.45e6 | 1.32e6 | 1.40e6 |
| Buffy | 1 | 1.62e6 | 1.70e6 | 1.39e6 | 1.41e6 |
| Gr63a (Gustatory receptor 63a) | 1 | 1.35e6 | 1.23e6 | 1.01e6 | 1.18e6 |
| Tip60 (Tat interactive protein 60kDa) | 1 | 4.96e5 | – | 7.94e5 | – |
| CG30151 | 1 | 5.14e5 | – | 7.53e5 | – |
| CG10132 | 1 | 1.31e6 | 1.38e6 | 1.26e6 | 1.31e6 |
| brv1 (brivido-1) | 1 | 1.40e6 | 1.42e6 | 1.22e6 | 1.33e6 |
